Measurements: article PMC7819943, “Rice protein-binding microarrays: a tool to detect cis-acting elements near promoter regions in rice”
This is one part of the list.

Biological target: T1, OsSMF1 (Oryza sativa, UniProt Q6ZLB0 1-436)
T1 sequence: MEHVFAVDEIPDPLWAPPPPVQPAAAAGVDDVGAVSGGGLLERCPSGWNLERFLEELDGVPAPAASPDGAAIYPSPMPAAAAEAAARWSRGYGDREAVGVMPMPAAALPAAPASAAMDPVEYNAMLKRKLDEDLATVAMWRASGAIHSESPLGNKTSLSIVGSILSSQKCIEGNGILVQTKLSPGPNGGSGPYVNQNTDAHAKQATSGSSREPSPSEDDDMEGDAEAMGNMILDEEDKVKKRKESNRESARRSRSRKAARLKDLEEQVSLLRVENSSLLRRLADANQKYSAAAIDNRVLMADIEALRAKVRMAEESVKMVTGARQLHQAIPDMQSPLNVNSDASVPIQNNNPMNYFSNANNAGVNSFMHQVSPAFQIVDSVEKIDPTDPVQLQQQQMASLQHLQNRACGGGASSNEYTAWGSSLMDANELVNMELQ
Experiment: protein-binding microarray (RPBM); PBS, 2% BSA, 51.3 ng/ul salmon testes DNA, 50 uM zinc acetate, 200 nM TF, 25 C, 1 h; high values mean tight binding
Details: protein: recombinant; tags: N-terminal polyhistidine and DsRed monomer fusion (pET32a); chain copies: 2; label: CyDye5-dUTP incorporated in the synthesized complementary strand; 3' TTTTT single-stranded linker to array surface; dsDNA, one strand shown
How it was run: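 An Axon 4000B scanner gave the binding signal as per-feature fluorescence intensity in arbitrary units. This followed washing of a custom Agilent array that had been incubated for 1 h at 25 °C with 200 nM protein in PBS, 2% BSA, salmon testes DNA and 50 µM zinc acetate. The proteins were transcription factors fused at the N-terminus to polyhistidine and DsRed, expressed in E. coli BL21-CodonPlus and purified on Ni–NTA.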

Sequence | binding signal
ACCGGCGTGTCGTCGACTCATGGCTTTTGACTGATTTTGGCGGAGTCACCTAGTGCAG | 5480 fluorescence intensity (a.u.)
AGAGCACGAAGTCATGTGTTTTGCTCCACTCCACGTCGTCCGGAGTCACCTAGTGCAG | 6760 fluorescence intensity (a.u.)
CCAGGTCTTCTAGCACCAACATGGTAGGAGTAAACAAACACGGAGTCACCTAGTGCAG | 4770 fluorescence intensity (a.u.)
TGCTGTGCAGGTTGCTCACATGTCACCTTCCGCTGTCATTCGGAGTCACCTAGTGCAG | 6090 fluorescence intensity (a.u.)
GCTGCCAAATTGCCAATGGAGGCGGCTAGCCGGTACCTAACGGAGTCACCTAGTGCAG | 3900 fluorescence intensity (a.u.)
TATATTTAATACTTCAAATACGTGTCCGTATATCCGATGTCGGAGTCACCTAGTGCAG | 7090 fluorescence intensity (a.u.)
CCTCACCACACGCGCCGTCTCCTCGATCACCACACGCGCACGGAGTCACCTAGTGCAG | 21300 fluorescence intensity (a.u.)
GATTTTGCGCGCCCGCATCGCACTCGCAGCAGCAGCGCCTCGGAGTCACCTAGTGCAG | 3740 fluorescence intensity (a.u.)
TCTGATTATGACTCGATTCAATTAGCAGCAACGACTAATGCGGAGTCACCTAGTGCAG | 4290 fluorescence intensity (a.u.)
TCCAGAGAATTCGCATGCTGGCCGTGTACGTACGTGGCGCCGGAGTCACCTAGTGCAG | 11100 fluorescence intensity (a.u.)
TTGGTTGACGTGGCGCCTACGTTGCTCATTTAACTCGGTCCGGAGTCACCTAGTGCAG | 30700 fluorescence intensity (a.u.)
CCTACCATCACATTCAGAGTTTGCATCCAAAATCCAGATGCGGAGTCACCTAGTGCAG | 28500 fluorescence intensity (a.u.)
GAATTGTCTGCAAATTTGCAGCATCCCGTCATTTCCAAATCGGAGTCACCTAGTGCAG | 3250 fluorescence intensity (a.u.)
CCTCCTCCTTCTCCGGCCACGGCGGCCGGCATTAGAAGCACGGAGTCACCTAGTGCAG | 3520 fluorescence intensity (a.u.)
AAGAGAAATATCTGGTTGCTCCAGCTTGGCATCGTTGACCCGGAGTCACCTAGTGCAG | 3870 fluorescence intensity (a.u.)
CCCTGTTCGTCGCCCGCCATGCCAGGGCGTGACATCACGTCGGAGTCACCTAGTGCAG | 4110 fluorescence intensity (a.u.)
CCTCCGTCTCATAAAATACCAACCTAGTACTGGATGTGATCGGAGTCACCTAGTGCAG | 3810 fluorescence intensity (a.u.)
GGGCCCCACTAACTGACTAAGCAAGTCAACGCTCTTTAAACGGAGTCACCTAGTGCAG | 3470 fluorescence intensity (a.u.)
TGCAGTAGTGCTGACGTTCTTGTGTTAATGTGTTGGTTTTCGGAGTCACCTAGTGCAG | 4430 fluorescence intensity (a.u.)
TTGCAAGCAGGGCTTTTCTGCCTACAGAGCTACTACGTGTCGGAGTCACCTAGTGCAG | 3780 fluorescence intensity (a.u.)
CTGGAGTCTGCCTGAAGTAATCTCATGATCTCATCCCCTCCGGAGTCACCTAGTGCAG | 4710 fluorescence intensity (a.u.)

Sequence | binding signal
TGTGCAGCACGCAGAGACAGAGGGCACGTGCCTTGGCTGCCGGAGTCACCTAGTGCAG | 3280 fluorescence intensity (a.u.)
CGACGATGTCGACACCCGGCCCCACGTCGACGCCGTCTTCCGGAGTCACCTAGTGCAG | 6120 fluorescence intensity (a.u.)
GAGTCTTGATAAGTGCACCCATCTCATCTCATCTCCTACTCGGAGTCACCTAGTGCAG | 3410 fluorescence intensity (a.u.)
AATTTGGAACTTTCATAGTGATGTCATCCATGGCTTTAACCGGAGTCACCTAGTGCAG | 9690 fluorescence intensity (a.u.)
TCACCATCCTCTTCATCGTCAGCAATCTTGACAACCGTACCGGAGTCACCTAGTGCAG | 5860 fluorescence intensity (a.u.)
TGCTGTCCCGCCGCTGGCGCCACGTCTGGAAATGGGTGTCCGGAGTCACCTAGTGCAG | 5840 fluorescence intensity (a.u.)
CACCATGGCCATAAGACGATGAGCTGAGAGAGAGAGAGAGCGGAGTCACCTAGTGCAG | 27900 fluorescence intensity (a.u.)
AAATCAGGAGCCTCTGCCATTGGTTTGTGAAGCTACATCGCGGAGTCACCTAGTGCAG | 65500 fluorescence intensity (a.u.)
AACCAGTTATAACAAATAGAAAATTATTTGCTTAATGTGCCGGAGTCACCTAGTGCAG | 14700 fluorescence intensity (a.u.)
TTCTGCTGGATGCAAAGGAGAACGTGTAGACATGTACTACCGGAGTCACCTAGTGCAG | 3270 fluorescence intensity (a.u.)
ATTACATAAGTTAGCAAGCAAGCATGTGCCAAGTCATTCCCGGAGTCACCTAGTGCAG | 5140 fluorescence intensity (a.u.)
GCCCACGCAGCAGCAGCTACCGTGGCGGCTGCGACCAGCGCGGAGTCACCTAGTGCAG | 3250 fluorescence intensity (a.u.)
AAGGAGGAGTTGGCCCCTCCAATCCTACGGGCCAAATCATCGGAGTCACCTAGTGCAG | 3930 fluorescence intensity (a.u.)
CATACATGTAGCATGAAATTAGGTGACGTTTCACTTGGATCGGAGTCACCTAGTGCAG | 4140 fluorescence intensity (a.u.)
AACGCCTCACCTTAGACGTGGCAACCTTAGTCACTCAAACCGGAGTCACCTAGTGCAG | 4870 fluorescence intensity (a.u.)
ATGTAATATTTTAGGATGATCATTAGCGTGAGTCACGCTGCGGAGTCACCTAGTGCAG | 7480 fluorescence intensity (a.u.)
ATGAATGCCGTTCTTGCTTTATCCAGTACATGTAAACATTCGGAGTCACCTAGTGCAG | 3380 fluorescence intensity (a.u.)
GGGCCCACGCCCGCACGTGCCAGTGTTACTCCACCTGTCACGGAGTCACCTAGTGCAG | 3150 fluorescence intensity (a.u.)
TGGCGGCGTGGAGCCGCGAGGGCGGTGGCGGCGGGGAGTTCGGAGTCACCTAGTGCAG | 3380 fluorescence intensity (a.u.)
CAGTCGAGTTTTGAATATTTAGATCAATCATATACCATTACGGAGTCACCTAGTGCAG | 34500 fluorescence intensity (a.u.)
TGGGGCCCACGTGGACCCCACCTGTCATCCTCATTACCCCCGGAGTCACCTAGTGCAG | 13400 fluorescence intensity (a.u.)

Exported with tabs: part of the list above
Sequence	binding signal
ATTACATAAGTTAGCAAGCAAGCATGTGCCAAGTCATTCCCGGAGTCACCTAGTGCAG	5140 fluorescence intensity (a.u.)
GCCCACGCAGCAGCAGCTACCGTGGCGGCTGCGACCAGCGCGGAGTCACCTAGTGCAG	3250 fluorescence intensity (a.u.)
